Test results: paper PMC7819943, “Rice protein-binding microarrays: a tool to detect cis-acting elements near promoter regions in rice”
This is one part of the list.

target: T1, OsSMF1 (Oryza sativa, UniProt Q6ZLB0 1-436); experiment: protein-binding microarray (RPBM); PBS, 2% BSA, 51.3 ng/ul salmon testes DNA, 50 uM zinc acetate, 200 nM TF, 25 C, 1 h; high values mean tight binding; details: protein: recombinant; tags: N-terminal polyhistidine and DsRed monomer fusion (pET32a); chain copies: 2; label: CyDye5-dUTP incorporated in the synthesized complementary strand; 3' TTTTT single-stranded linker to array surface; dsDNA, one strand shown
T1 sequence: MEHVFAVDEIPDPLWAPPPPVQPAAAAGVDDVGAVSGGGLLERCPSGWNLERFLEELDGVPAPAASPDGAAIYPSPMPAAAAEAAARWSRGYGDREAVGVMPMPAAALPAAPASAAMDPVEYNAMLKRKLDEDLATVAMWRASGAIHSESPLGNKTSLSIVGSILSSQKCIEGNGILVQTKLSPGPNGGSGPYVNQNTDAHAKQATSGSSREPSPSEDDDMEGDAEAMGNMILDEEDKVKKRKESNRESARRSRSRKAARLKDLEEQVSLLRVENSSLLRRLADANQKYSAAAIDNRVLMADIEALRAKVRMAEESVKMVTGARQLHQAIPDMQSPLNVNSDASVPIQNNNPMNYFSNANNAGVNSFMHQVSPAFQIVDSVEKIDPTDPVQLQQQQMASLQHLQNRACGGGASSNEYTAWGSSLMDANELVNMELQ
How it was run: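 The binding signal is fluorescence intensity per array feature (arbitrary units). Readings came from an Axon 4000B scanner after a washed, 2% BSA-blocked, double-stranded custom Agilent array had been incubated for 1 h at 25 °C with 200 nM protein and 50 µM zinc acetate. The protein was a Ni–NTA-purified transcription factor fused N-terminally to polyhistidine and DsRed, expressed in E. coli BL21-CodonPlus.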

| Sequence | binding signal |
| --- | --- |
| TATATATATATATATATATGTATGTATGTATGTATGTATGCGGAGTCACCTAGTGCAG | 3160 fluorescence intensity (a.u.) |
| GCATTGACATTAGCCACGAAAGCAACAAGGGATCCTTTGTCGGAGTCACCTAGTGCAG | 3290 fluorescence intensity (a.u.) |
| CTCACATGACTCATGTTAAGAGAGCACATATGTTTCTCTGCGGAGTCACCTAGTGCAG | 4600 fluorescence intensity (a.u.) |
| TTTTCGAGCTCTTCCAACGTCACACCTCTTATCATTTTGACGGAGTCACCTAGTGCAG | 5300 fluorescence intensity (a.u.) |
| CGTGTACGTATTAATCGTATACGTGTACGTCGGTGTCCTGCGGAGTCACCTAGTGCAG | 9780 fluorescence intensity (a.u.) |
| TTTGTCGAACAGCTAACACGTACGATGAGCGGCTCGCCGGCGGAGTCACCTAGTGCAG | 3160 fluorescence intensity (a.u.) |
| ATTGGTTCTGACGTAGATAAATACCTACAACCTTAACCCTCGGAGTCACCTAGTGCAG | 4570 fluorescence intensity (a.u.) |
| AGTTTGGTGAAATCGATAGTATACACCTTGCTAGGAACATCGGAGTCACCTAGTGCAG | 3770 fluorescence intensity (a.u.) |
| GCCCACGCTCACCGACTCCATCGACGTCACGCTCACCGCCCGGAGTCACCTAGTGCAG | 5090 fluorescence intensity (a.u.) |
| ATTTTAGCGCCAATGCACCATGTCAGACCATTCAATTGTGCGGAGTCACCTAGTGCAG | 3610 fluorescence intensity (a.u.) |
| TTTTACGTATTCTTTGAGGGATTCCAAGAGCTGTCTCTCTCGGAGTCACCTAGTGCAG | 3300 fluorescence intensity (a.u.) |
| TAGGTGTGCTGGAAGTGGGAGTGGGTAGGTATTCTTGTTTCGGAGTCACCTAGTGCAG | 4310 fluorescence intensity (a.u.) |
| TGAGGTTGGGGTTGTGGCGCGGGACGAAGGCGGAGGACTCCGGAGTCACCTAGTGCAG | 3460 fluorescence intensity (a.u.) |
| TTTTGATCCCGGATTTGGCCTACGTGGTGGCTGAGTTAGCCGGAGTCACCTAGTGCAG | 7060 fluorescence intensity (a.u.) |
| TTATACATGCTCACGTGGCTATGTCATTGCCCTGGGTGGGCGGAGTCACCTAGTGCAG | 12000 fluorescence intensity (a.u.) |
| AAACATTTAGACCATAAAACCTATGTTTATGTGTCACACGCGGAGTCACCTAGTGCAG | 4000 fluorescence intensity (a.u.) |
| GCCCGGCTGACCATGCATGACCCTCGTCGGCCTCCTCGCGCGGAGTCACCTAGTGCAG | 4190 fluorescence intensity (a.u.) |
| AGGTAAAAGGGCAAATATCTAATTTCCCATTATTTGTTTGCGGAGTCACCTAGTGCAG | 3560 fluorescence intensity (a.u.) |
| ACAGGTAGCTCCATATCTTGTTCATATTGACATACACAATCGGAGTCACCTAGTGCAG | 31500 fluorescence intensity (a.u.) |
| CGCCAAGCGCATTGGCGCTGAGGTTGGCCGTGTCAGCGCCCGGAGTCACCTAGTGCAG | 6150 fluorescence intensity (a.u.) |
| GACAACCCTAAACGCCGTTCTTATAGTGTTGACTCAGCGTCGGAGTCACCTAGTGCAG | 8300 fluorescence intensity (a.u.) |
| CTGAAATTAATAGATCTAGTGGTACACGCGGCTTGCATGACGGAGTCACCTAGTGCAG | 3860 fluorescence intensity (a.u.) |
| ATACACACATATCCGCGCCATTATAAATTTGACAGCATTTCGGAGTCACCTAGTGCAG | 3440 fluorescence intensity (a.u.) |
| GAGGACAGGCGGTGACCGGCTGACCGCGGACATGACGCACCGGAGTCACCTAGTGCAG | 5230 fluorescence intensity (a.u.) |
| CGGTTTGTGCGGCAAGACGTGGCTTAACCTGTGCGTGTGTCGGAGTCACCTAGTGCAG | 4240 fluorescence intensity (a.u.) |
| ACCGCCCAGCCGCCGCACGTGGTCGAATCGGCCTCCGTGTCGGAGTCACCTAGTGCAG | 3890 fluorescence intensity (a.u.) |
| AACCCTGGGTTTCCGTGTCTAACGTTTGACCGTCCGCCTTCGGAGTCACCTAGTGCAG | 3440 fluorescence intensity (a.u.) |

| Sequence | binding signal |
| --- | --- |
| CCCACCCACCCACTGCATTCATCTCTCCTCTCTATCTCTTCGGAGTCACCTAGTGCAG | 3250 fluorescence intensity (a.u.) |
| TTCATCTTTATCAACAAACGAACGCCACCTCAATATCTATCGGAGTCACCTAGTGCAG | 4270 fluorescence intensity (a.u.) |
| GGAACAGGTCGCCGCAGGGGCACGGGTACGTGTACGCCCCCGGAGTCACCTAGTGCAG | 3310 fluorescence intensity (a.u.) |
| CCTCAAAATTGCAGGGGCGGAGATGGGGATGGTAGTTTACCGGAGTCACCTAGTGCAG | 3330 fluorescence intensity (a.u.) |
| GATCTGTAGCCAGCTGCAGCACGAGCTCTAATAAACCATGCGGAGTCACCTAGTGCAG | 7100 fluorescence intensity (a.u.) |
| GGCCTGCACGGTGGCGTCGTAGCGTGGCCTGTCCCACTTGCGGAGTCACCTAGTGCAG | 3980 fluorescence intensity (a.u.) |
| TTTGGGGCATATGAATTCCACGTGTATTCCAAAATTTCTCCGGAGTCACCTAGTGCAG | 12500 fluorescence intensity (a.u.) |
| AAATGGTTTATTATCTGACTCATACAACATGTGCTGCCAACGGAGTCACCTAGTGCAG | 9160 fluorescence intensity (a.u.) |
| TCTCCCTTTCCAACTCTCCACATCCAAACAGCAGACTAAACGGAGTCACCTAGTGCAG | 28800 fluorescence intensity (a.u.) |
| TCGACATGACATGTTGCGTCACTGCACGAAGCGGAGTGAACGGAGTCACCTAGTGCAG | 4290 fluorescence intensity (a.u.) |
| AGAAGAAAATTAAAGAAACTGACTTGGATAGCACTGCACTCGGAGTCACCTAGTGCAG | 3460 fluorescence intensity (a.u.) |
| CACCTCGTTTTGCGTAAAACACTTGATCTTGATCTTTATCCGGAGTCACCTAGTGCAG | 6540 fluorescence intensity (a.u.) |
| AAGAAAACCAATGTCAGCAAACTTATCCAAATCGAGCTCGCGGAGTCACCTAGTGCAG | 3840 fluorescence intensity (a.u.) |
| CCGCCACCCGCTGCCCGGGGAGCTCCGCCTTCACCTCCGCCGGAGTCACCTAGTGCAG | 7820 fluorescence intensity (a.u.) |
| CACGGATTATTGCAATCGATCCAAACAATCACGTCGGTCGCGGAGTCACCTAGTGCAG | 3390 fluorescence intensity (a.u.) |
| GCGAGACGGCAGGTCTTACAGGTGGGCCCCACGTGGCAGACGGAGTCACCTAGTGCAG | 14200 fluorescence intensity (a.u.) |
| AGCTATACGTCTCCGGTATTGAACGTGAATTAAAACAATACGGAGTCACCTAGTGCAG | 3580 fluorescence intensity (a.u.) |
| ACAATCATCAACTCTAGATGACATGGACATATGTTACCACCGGAGTCACCTAGTGCAG | 4690 fluorescence intensity (a.u.) |
| CCATTTCTTGCATCCCTTCCGGATCTATCAGCCCCGTCACCGGAGTCACCTAGTGCAG | 4090 fluorescence intensity (a.u.) |
| ATTAGGCTCAAAAGATTCGTCTCGCGATTTTCAGACGAGCCGGAGTCACCTAGTGCAG | 41800 fluorescence intensity (a.u.) |
| AATTGGGTTATCTTTTCCTTGTCATCTAAGATGAAGAATCCGGAGTCACCTAGTGCAG | 3150 fluorescence intensity (a.u.) |
| GTACGCGAGCATCCCGGCGTTGTCGAGGCGCTCCAGGACGCGGAGTCACCTAGTGCAG | 40200 fluorescence intensity (a.u.) |
| CGCAGATCGACGACCCGTCCTTCGTCACCGTCTATGGCGTCGGAGTCACCTAGTGCAG | 4530 fluorescence intensity (a.u.) |
| GGATCGAATTGCCACATAAACGCCACGTCAATGCCACATCCGGAGTCACCTAGTGCAG | 10400 fluorescence intensity (a.u.) |
| TAGCTCTTACATAAAAGCTAGCGTCATTCTCTTATCCACACGGAGTCACCTAGTGCAG | 5300 fluorescence intensity (a.u.) |
| TGCTTGCCGTTCGTTCGTGTGTGTGTGCGTGTGCGTAAGCCGGAGTCACCTAGTGCAG | 4340 fluorescence intensity (a.u.) |
| AGGGCCGCTTGGGACCCACGTGTCGGTGGGATGGTGTTTGCGGAGTCACCTAGTGCAG | 7360 fluorescence intensity (a.u.) |

For reference, some entries already given:

| Sequence | binding signal |
| --- | --- |
| GCGAGACGGCAGGTCTTACAGGTGGGCCCCACGTGGCAGACGGAGTCACCTAGTGCAG | 14200 fluorescence intensity (a.u.) |
| AGCTATACGTCTCCGGTATTGAACGTGAATTAAAACAATACGGAGTCACCTAGTGCAG | 3580 fluorescence intensity (a.u.) |
